# Assay results: the supplement of paper PMC9254222
# Structures can show the parent of a compound that is named as a salt. Whole data set: some 1,100 compounds, median “Renilla luciferase signal (cell health) relative to plate median” near 0.97, cut for the highest 2% near 1.6. This is a selection; strong and weak results do not stand in their true shares.
# Test system: HEK293T (UBE3A T485A transfected, BAR Wnt reporter)
# Assay: Renilla luciferase signal (cell health) relative to plate median (fold (linear ratio)); higher = higher Renilla signal
# Conditions: 24 h
# In short: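 Wnt activity (firefly/Renilla ratio) and cell health (raw Renilla) were read with Dual-Glo luciferase and median-centred plate by plate. HEK293T cells, at 4500 cells/well in white 384-well plates with DMEM plus 10% FBS at 37°C and 5% CO2, carried a transfected BAR firefly luciferase Wnt reporter, TK-Renilla and an expression plasmid. The chemicals were applied by robot at 0.01–100 uM for 24 h, beginning four hours after transfection, and results were averaged across four biological replicates.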
Compound,Renilla luciferase signal (concentration: 0.01 uM),Renilla luciferase signal (concentration: 0.1 uM),Renilla luciferase signal (concentration: 1 uM),Renilla luciferase signal (concentration: 10 uM),Renilla luciferase signal (concentration: 100 uM)
CC1(C)C(C=C(Cl)Cl)C1C(=O)OCc1cccc(Oc2ccccc2)c1 (stereo not drawn) [Permethrin],1.5,1.03,1.05,1.11,0.617
C=CC1(C)OC(=O)N(c2cc(Cl)cc(Cl)c2)C1=O (stereo not drawn) [Vinclozolin],,,,,2.37
COP(=S)(OC)Oc1ccc([N+](=O)[O-])c(C)c1 [Fenitrothion],1.12,0.98,1.05,1.05,1.42
C#CC(C)(C)NC(=O)c1cc(Cl)cc(Cl)c1 [Propyzamide],,,,,1.72
N#C/N=C1\SCCN1Cc1ccc(Cl)nc1 [Thiacloprid],0.755,0.888,1.01,0.922,1.33
ClC1=C(Cl)C2(Cl)C3C(Cl)C=CC3C1(Cl)C2(Cl)Cl (stereo not drawn) [Heptachlor],,0.778,0.976,0.949,1.04
Cc1cccc([N+](=O)[O-])c1 [3-Nitrotoluene],,1.17,0.989,1.06,1.12
COc1ccc(C(=CC(=O)N2CCOCC2)c2ccc(Cl)cc2)cc1OC [Dimethomorph],1.1,1.09,0.911,0.947,0.703
CCOCN(C(=O)CCl)c1c(C)cccc1CC [Acetochlor],1.31,1.16,1.01,0.966,0.122
CCOS(=O)(=O)OCC [Diethyl sulfate],,0.865,1.01,1,1.21
CO/N=C(/C1=NOCCO1)c1ccccc1Oc1ncnc(Oc2ccccc2Cl)c1F [Fluoxastrobin],0.875,0.941,1.05,0.383,1.63
c1ccc2c(c1)-c1cccc3cccc-2c13 [Fluoranthene],,0.945,0.934,0.905,1.05
COCC(C)N(C(=O)CCl)c1c(C)csc1C (stereo not drawn) [Dimethenamid],0.861,0.872,0.915,0.762,0.762
N#Cc1c[nH]cc1-c1cccc2c1OC(F)(F)O2 [Fludioxonil],1.03,1.15,1.07,1.12,1.28
Cc1ccc(-c2c(Cl)nc(C#N)n2S(=O)(=O)N(C)C)cc1 [Cyazofamid],0.803,1.04,1.08,0.959,0.0232
"Nn1cnnc1 [4-Amino-1,2,4-triazole]",,0.956,0.961,1.09,1.21
CC1(C)CON(Cc2ccccc2Cl)C1=O [Clomazone],1.23,1.14,1.02,1.06,1.4
C1CC2OC2CC1C1CO1 (stereo not drawn) [4-Vinyl-1-cyclohexene dioxide],,0.978,0.971,0.856,0.459
Nc1ccc(-c2ccc(N)cc2)cc1 [Benzidine],,0.823,0.83,0.856,1.23
"Cc1ccc(N)c(N)c1 [3,4-Diaminotoluene]",,1.06,0.86,0.793,0.0346
"Cc1cccc(N)c1N [2,3-Diaminotoluene]",,0.728,0.75,0.772,0.198
"Cc1ccc([N+](=O)[O-])cc1C [1,2-Dimethyl-4-nitrobenzene]",,0.986,1.01,0.915,1.19

Compound,Renilla luciferase signal (concentration: 0.01 uM),Renilla luciferase signal (concentration: 0.1 uM),Renilla luciferase signal (concentration: 1 uM),Renilla luciferase signal (concentration: 10 uM),Renilla luciferase signal (concentration: 100 uM)
Cc1ccn2nc(S(=O)(=O)Nc3c(F)cccc3F)nc2n1 [Flumetsulam],0.963,1.07,0.959,1.07,1.67
O=[N+]([O-])c1cc(C(F)(F)F)c(Cl)c([N+](=O)[O-])c1Nc1ncc(C(F)(F)F)cc1Cl [Fluazinam],1.43,1.02,1.08,0.363,0.0145
CCNS(=O)(=O)C(F)(F)C(F)(F)C(F)(F)C(F)(F)C(F)(F)C(F)(F)C(F)(F)C(F)(F)F [Sulfluramid],,0.9,0.603,0.698,0.643
CC(C)OC(=O)Nc1cccc(Cl)c1 [Chlorpropham],0.728,0.618,0.828,0.81,0.766
CCC(C)C1OC2(C=CC1C)CC1CC(CC=C(C)C(OC3CC(OC)C(OC4CC(OC)C([NH2+]C)C(C)O4)C(C)O3)C(C)C=CC=C3COC4C(O)C(C)=CC(C(=O)O1)C34O)O2.O=C([O-])c1ccccc1 (stereo not drawn) [Emamectin benzoate],1.02,1.08,0.877,0.0929,0.0231
CC(C)(C)OOC(C)(C)C [Di-tert-butyl peroxide],,1.07,0.922,1.09,1.12
"CCN(CC)c1ccccc1 [N,N-Diethylaniline]",,1.07,1.06,1.09,1.47
CO/C=C(/C(=O)OC)c1ccccc1Oc1cc(Oc2ccccc2C#N)ncn1 [Azoxystrobin],0.863,0.878,0.965,0.721,0.326
N#Cc1cc(Br)c(O)c(Br)c1 [Bromoxynil],1.21,1.25,1.01,1.04,0.148
CN(C)C(=O)Cl [Dimethylcarbamoyl chloride],,1.04,1.06,1.09,1.37
CCOc1cc(Oc2ccc(C(F)(F)F)cc2Cl)ccc1[N+](=O)[O-] [Oxyfluorfen],0.706,0.749,0.853,0.78,0.248
O=C(O)C1C(C(=O)O)C2(Cl)C(Cl)=C(Cl)C1(Cl)C2(Cl)Cl (stereo not drawn) [Chlorendic acid],,0.994,0.911,0.965,0.955
Cc1ccc([N+](=O)[O-])cc1 [4-Nitrotoluene],,0.29,0.237,0.173,0.391
Cn1cc(-c2ccccc2)c(=O)c(-c2cccc(C(F)(F)F)c2)c1 [Fluridone],,0.931,0.971,1.03,0.667
CCCCCCCc1ccc(O)cc1 [4-Heptylphenol],,1.21,1.2,1.24,1.33
Oc1cc(Cl)ccc1Oc1ccc(Cl)cc1Cl [Triclosan],0.941,0.922,0.956,0.911,0.083
CS/C(C)=N/OC(=O)N(C)SN(C)C(=O)O/N=C(\C)SC [Thiodicarb],1,0.646,0.895,0.91,0.0128
CCC(C)c1ccc(O)cc1 (stereo not drawn) [4-(Butan-2-yl)phenol],,1.03,1.04,0.967,1.21
CC(C)(C)c1ccccc1O [2-tert-Butylphenol],,0.823,0.913,0.724,0.378
C#CCC1=C(C)C(OC(=O)C2C(C=C(C)C)C2(C)C)CC1=O (stereo not drawn) [Prallethrin],1.26,1.03,1.08,0.99,0.132
"CCCCCCCCCc1ccc(O)cc1 [4-Nonylphenol, branched]",,1,0.945,1.06,0.973
Clc1cccc(C(Cl)(Cl)Cl)n1 [Nitrapyrin],0.668,0.936,1.01,0.981,1.23

# Reformatted: 3 of the compounds above
Compound | Renilla luciferase signal (concentration: 0.01 uM) | Renilla luciferase signal (concentration: 0.1 uM) | Renilla luciferase signal (concentration: 1 uM) | Renilla luciferase signal (concentration: 10 uM) | Renilla luciferase signal (concentration: 100 uM)
O=C(O)C1C(C(=O)O)C2(Cl)C(Cl)=C(Cl)C1(Cl)C2(Cl)Cl (stereo not drawn) [Chlorendic acid] |  | 0.994 | 0.911 | 0.965 | 0.955
Cc1ccc([N+](=O)[O-])cc1 [4-Nitrotoluene] |  | 0.29 | 0.237 | 0.173 | 0.391
Cn1cc(-c2ccccc2)c(=O)c(-c2cccc(C(F)(F)F)c2)c1 [Fluridone] |  | 0.931 | 0.971 | 1.03 | 0.667

# Carrying on.

Compound,Renilla luciferase signal (concentration: 0.01 uM),Renilla luciferase signal (concentration: 0.1 uM),Renilla luciferase signal (concentration: 1 uM),Renilla luciferase signal (concentration: 10 uM),Renilla luciferase signal (concentration: 100 uM)
CNc1cnn(-c2cccc(C(F)(F)F)c2)c(=O)c1Cl [Norflurazon],1.06,0.78,0.77,0.879,1.28
CCC(=O)C(CC(C)N(C)C)(c1ccccc1)c1ccccc1.Cl (stereo not drawn) [Methadone hydrochloride],,1.01,1.01,1.07,0.142
CC(C)=CC1C(C(=O)OCN2C(=O)C3=C(CCCC3)C2=O)C1(C)C (stereo not drawn) [Tetramethrin],0.966,0.959,0.83,1.01,1.08
CC(=O)N=C1C=CC(=O)C=C1,1.05,0.982,0.94,1.19,0.742
CS(=O)(=O)c1ccc(C(=O)C2C(=O)CCCC2=O)c([N+](=O)[O-])c1 [Mesotrione],0.834,0.808,0.956,1.03,1.39
C=CCOC(=O)C(C)(C)OC(=O)c1cc(-n2c(=O)cc(C(F)(F)F)n(C)c2=O)ccc1Cl [Butafenacil],0.995,1.27,1.1,0.865,1.16
CN(C)NC(=O)CCC(=O)O [Daminozide],0.728,0.735,0.928,0.807,1.39
NS(=O)(=O)C(F)(F)C(F)(F)C(F)(F)C(F)(F)C(F)(F)C(F)(F)C(F)(F)C(F)(F)F,,0.448,0.567,0.447,0.0943
O=P(OCCCl)(OCCCl)OCCCl [Tris(2-chloroethyl) phosphate],,1.28,1.16,0.953,1.26
CCSC(=O)N(CC)C1CCCCC1 [Cycloate],0.797,0.996,0.924,1.01,1.15
CSc1nc(NC(C)C)nc(NC(C)C)n1 [Prometryn],1.14,1.03,0.973,1.01,0.989
O.[Br-].[Br-].c1cc[n+]2c(c1)-c1cccc[n+]1CC2 [Diquat dibromide monohydrate],0.901,1.01,1.01,1.01,1.24
Oc1nc(O)nc(O)n1 [Cyanuric acid],,0.931,0.924,1.05,0.976
OCC1CO1 (stereo not drawn) [Glycidol],,0.963,0.89,1.04,1.1
O=c1n(Cl)c(=O)n(Cl)c(=O)n1Cl [Symclosene],,,,,1.88
O=C1CCCO1 [4-Butyrolactone],,0.916,0.91,0.928,1.07
Cc1cc(N=Nc2ccccc2C)ccc1N [2-Amino-5-azotoluene],,0.844,0.724,0.656,0.424
CCCC(=NOCC)C1=C(O)CC(CC(C)SCC)CC1=O (stereo not drawn) [Sethoxydim],1.01,0.945,0.86,0.907,1.19
c1ccc(-c2ccccc2)cc1 [Biphenyl],,0.779,0.922,0.845,0.979
Nc1cc2c3c(c1)C(c1ccccc1)=N[C@@H](NC(=O)c1cccnc1)C(=O)N3CC2,,0.898,0.862,0.898,0.793
